Assay results published in PMC3061263.
Results are given in words; binding and its absence hold for the method and conditions named. Binding seen in cells or lysates may run through a third protein. Some results given as binding are weak or reduced against the parent protein; the word gives no strength.

Target: T1, Retinoid x receptor alpha (RXRα), mouse (mouse) (UniProt P28700)
T1 sequence: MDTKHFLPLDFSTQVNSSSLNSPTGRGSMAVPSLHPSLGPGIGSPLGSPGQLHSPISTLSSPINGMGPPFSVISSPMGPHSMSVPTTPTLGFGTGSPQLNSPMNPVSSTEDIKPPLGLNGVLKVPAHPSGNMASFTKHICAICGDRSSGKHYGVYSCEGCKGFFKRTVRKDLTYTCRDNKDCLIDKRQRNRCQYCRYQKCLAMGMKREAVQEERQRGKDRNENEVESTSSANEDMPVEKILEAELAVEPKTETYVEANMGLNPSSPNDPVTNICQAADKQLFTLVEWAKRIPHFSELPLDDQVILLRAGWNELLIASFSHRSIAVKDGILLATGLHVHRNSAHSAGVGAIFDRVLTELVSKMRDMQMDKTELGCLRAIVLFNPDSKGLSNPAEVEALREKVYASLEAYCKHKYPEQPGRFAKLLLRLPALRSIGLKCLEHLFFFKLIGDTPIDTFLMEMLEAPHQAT
Test: co-IP; nuclear extracts of transfected COS-7 cells (10 μM Wy for 48 h), no DNA; 25 mM HEPES pH 7.9, 200 mM KCl, 1 mM EDTA, 0.5% NP-40, 10% glycerol; 2 μg PPARα or RXRα antibody at 4°C for 12 h, protein G-Sepharose; Western blot with anti-HNF4α antibody

binding: binds
B1: Hepatocyte nuclear factor-4 alpha (HNF4α), wild type, human (protein, UniProt P41235-2 1-464)
chain: MRLSKTLVDMDMADYSAALDPAYTTLEFENVQVLTMGNDTSPSEGTNLNAPNSLGVSALCAICGDRATGKHYGASSCDGCKGFFRRSVRKNHMYSCRFSRQCVVDKDKRNQCRYCRLKKCFRAGMKKEAVQNERDRISTRRSSYEDSSLPSINALLQAEVLSRQITSPVSGINGDIRAKKIASIADVCESMKEQLLVLVEWAKYIPAFCELPLDDQVALLRAHAGEHLLLGATKRSMVFKDVLLLGNDYIVPRHCPELAEMSRVSIRILDELVLPFQELQIDDNEYAYLKAIIFFDPDAKGLSDPGKIKRLRSQVQVSLEDYINDRQYDSRGRFGELLLLLPTLQSITWQMIEQIQFIKLFGMAKIDNLLQEMLLGGSPSDAPHAHHPLHPHLMQEHMGTNVIVANTMPTHLSNGQMSTPETPQPSPPGGSGSEPYKLLPGAVATIVKPLSAIPQPTITKQEVI
